Literature values, collected in US20240229143A1, “FORMULATION OF PEPTIDE IMMUNOTHERAPIES” (priority 2020, published 2024).

Conditions: single amino acid

## N[C@@H](Cc1ccc(O)cc1)C(=O)O [Tyrosine (Tyr)]
  Log D7.4: 0.55
